In paper PMC5421940 one finds binding data, which are given here for one molecule.

These are yes or no findings as the source states them, for the method shown. In cells and extracts the contact can be indirect. Binding calls can cover weak binding; strength is not graded here. Sequences can lack the tags named with a protein.

This assay deals with GFP-MCPyV tAg N100A (Merkel cell polyomavirus). The experiment in a line: co-IP.

B1: HA-PP4R1 (expressed in cells) (protein, UniProt Q8TF05 1-950)
chain: MADLSLLQEDLQEDADGFGVDDYSSESDVIIIPSALDFVSQDEMLTPLGRLDKYAASENIFNRQMVARSLLDTLREVCDDERDCIAVLERISRLADDSEPTVRAELMEQVPHIALFCQENRPSIPYAFSKFLLPIVVRYLADQNNQVRKTSQAALLALLEQELIERFDVETKVCPVLIELTAPDSNDDVKTEAVAIMCKMAPMVGKDITERLILPRFCEMCCDCRMFHVRKVCAANFGDICSVVGQQATEEMLLPRFFQLCSDNVWGVRKACAECFMAVSCATCQEIRRTKLSALFINLISDPSRWVRQAAFQSLGPFISTFANPSSSGQYFKEESKSSEEMSVENKNRTRDQEAPEDVQVRPEDTPSDLSVSNSSVILENTMEDHAAEASGKPLGEISVPLDSSLLCTLSSESHQEAASNENDKKPGNYKSMLRPEVGTTSQDSALLDQELYNSFHFWRTPLPEIDLDIELEQNSGGKPSPEGPEEESEGPVPSSPNITMATRKELEEMIENLEPHIDDPDVKAQVEVLSAALRASSLDAHEETISIEKRSDLQDELDINELPNCKINQEDSVPLISDAVENMDSTLHYIHSDSDLSNNSSFSPDEERRTKVQDVVPQALLDQYLSMTDPSRAQTVDTEIAKHCAYSLPGVALTLGRQNWHCLRETYETLASDMQWKVRRTLAFSIHELAVILGDQLTAADLVPIFNGFLKDLDEVRIGVLKHLHDFLKLLHIDKRREYLYQLQEFLVTDNSRNWRFRAELAEQLILLLELYSPRDVYDYLRPIALNLCADKVSSVRWISYKLVSEMVKKLHAATPPTFGVDLINELVENFGRCPKWSGRQAFVFVCQTVIEDDCLPMDQFAVHLMPHLLTLANDRVPNVRVLLAKTLRQTLLEKDYFLASASCHQEAVEQTIMALQMDRDSDVKYFASIHPASTKISEDAMSTASSTY
On to B1, for which the binding entry was “binds”.
